Measurements as given in PubChem BioAssay AID248 (DTP/NCI, 2004).
The list is a part of this screen's results and no random one: it gathers tests that were run many times, whatever their T/C, doses with no T/C, and many T/C values between a quarter and a half above the control. Other doses and runs of a compound stand elsewhere. T/C: endpoint of the treated group in % of that of the vehicle group. Some doses have a count of surviving animals in place of a T/C: the source holds a T/C of zero for them, seemingly a mark for toxic or unscored doses. Some survivor counts are full or nearly so, which does not show that the dose was tolerated: survival well below the control is almost never listed, so the zero probably covers shortened survival too. Counts of survivors are from the toxicity check (mostly the fifth day) where no day follows; animals may have died later. Schedules are NCI's codes, read here as Q, the interval in days (D) or hours (H), X, the number of doses. Some schedule codes hold Z or #, which are not explained here. For survival time, this PubChem deposit counts one and a half times the control or more as active, and values a quarter to a half above the control carry no call in these data; other NCI protocols may use other cut-offs.

System: L1210 leukemia ip in BDF1 mice, survival T/C
Assay: NCI In Vivo Anticancer Drug Screen. Data for tumor model L1210 Leukemia (intraperitoneal) in B6D2F1 (BDF1) mice
Settings: T/C endpoint: mean survival time, higher T/C = longer survival
[1] = dose: 400.0 mg/kg/injection, schedule: Q04DX003 (ip), vehicle: Klucel (hydroxypropylcellulose) (HPC)
[2] = dose: 200.0 mg/kg/injection, schedule: Q01DX009 (ip), vehicle: saline with Tween-80
[3] = dose: 400.0 mg/kg/injection, schedule: Q01DX009 (ip), vehicle: saline with Tween-80
[4] = dose: 100.0 mg/kg/injection, schedule: Q04DX003 (ip), vehicle: Klucel (hydroxypropylcellulose) (HPC)
[5] = dose: 200.0 mg/kg/injection, schedule: Q04DX003 (ip), vehicle: Klucel (hydroxypropylcellulose) (HPC)
[6] = dose: 300.0 mg/kg/injection, schedule: Q01DX001 (ip), vehicle: other
[7] = dose: 400.0 mg/kg/injection, schedule: Q04DX003 (ip), vehicle: saline
[8] = dose: 150.0 mg/kg/injection, schedule: Q01DX001 (ip), vehicle: other
[9] = dose: 200.0 mg/kg/injection, schedule: Q01DX009 (ip), vehicle: Klucel (hydroxypropylcellulose) (HPC)
[10] = dose: 400.0 mg/kg/injection, schedule: Q01DX009 (ip), vehicle: Klucel (hydroxypropylcellulose) (HPC)
[11] = dose: 400.0 mg/kg/injection, schedule: Q01DX001 (ip), vehicle: saline
[12] = dose: 50.0 mg/kg/injection, schedule: Q01DX009 (ip), vehicle: Klucel (hydroxypropylcellulose) (HPC)

## Cc1ccc(NC(=O)N2CC2(C)C)cc1NC(=O)N1CC1(C)C
[1]
  T/C: 141 % of control

## CCN(/N=C/c1ccc([N+](=O)[O-])o1)C(N)=O
dose: 100.0 mg/kg/injection, schedule: Q04DX002 (ip), vehicle: saline with Tween-80
  survivor count: 1 of 3

## c1ccc2cc3c(cc2c1)Nc1ccncc1N3
dose: 100.0 mg/kg/injection, schedule: Q01DX009 (ip), vehicle: saline with Tween-80
  survivor count: 0 of 6
[2]
  survivor count: 0 of 6
[3]
  survivor count: 0 of 6

## CN(NC(=O)CC(=O)NN(C)C(=S)c1ccc(Cl)cc1)C(=S)c1ccc(Cl)cc1
dose: 100.0 mg/kg/injection, schedule: Q01DX009 (ip), vehicle: gum acacia
  survivor count: 6 of 6
dose: 100.0 mg/kg/injection, schedule: Q04DX003 (ip), vehicle: gum acacia
  survivor count: 6 of 6
dose: 200.0 mg/kg/injection, schedule: Q01DX009 (ip), vehicle: gum acacia
  survivor count: 6 of 6
dose: 400.0 mg/kg/injection, schedule: Q01DX009 (ip), vehicle: gum acacia
  survivor count: 6 of 6

## CS(=O)(=O)c1ccc(N)cc1
[4]
  survivor count: 0 of 6
[5]
  survivor count: 0 of 6
[1]
  survivor count: 0 of 6

## Nc1ccn([C@@H](C=O)O[C@@H](C=O)CO)c(=O)n1
dose: 140.0 mg/kg/injection, schedule: Q01DX Z (ip), vehicle: water
  T/C: 148 % of control

## C=CCC(C)/C(C)=C(/C#N)C(=O)OCC (stereo unspecified)
[6]
  survivor count: 1 of 6

## CN(C)CC1C(O)C2CCN1CC2 (stereo unspecified)
[7]
  survivor count: 1 of 6

## ClC(Cl)(Cl)SSSC(Cl)(Cl)Cl
dose: 75.0 mg/kg/injection, schedule: Q01DX001 (ip), vehicle: other
  survivor count: 2 of 6
[8]
  survivor count: 0 of 6
[6]
  survivor count: 0 of 6

## COC(=O)c1cncn1C(C)c1ccccc1 (stereo unspecified)
dose: 200.0 mg/kg/injection, schedule: Q01DX009 (ip), vehicle: saline
  survivor count: 0 of 6
dose: 200.0 mg/kg/injection, schedule: Q04DX003 (ip), vehicle: saline
  survivor count: 3 of 6
[7]
  survivor count: 0 of 6

## C1=C(c2ccccc2)CC(/C=C/c2ccccc2)(c2ccccc2)C1c1ccccc1 (stereo unspecified)
[2]
  survivor count: 6 of 6
[3]
  survivor count: 6 of 6

## O=C(Nc1ccc(Br)cc1)Oc1ccccc1C(=O)OCc1ccccc1
dose: 400.0 mg/kg/injection, schedule: Q04DX002 (ip), vehicle: Klucel (hydroxypropylcellulose) (HPC)
  survivor count: 3 of 3

## COc1ccc(C(=O)N/N=C/c2c(Cl)cccc2Cl)cc1
[9]
  survivor count: 0 of 6
[10]
  survivor count: 0 of 6

## CCCCCCN(CCCCCC)C(F)(F)C(=O)Nc1ccc(S(=O)(=O)c2ccc(NC(=O)C(F)(F)N(CCCCCC)CCCCCC)cc2)cc1
dose: 100.0 mg/kg/injection, schedule: Q01DX001 (ip), vehicle: saline
  survivor count: 0 of 4
dose: 200.0 mg/kg/injection, schedule: Q01DX001 (ip), vehicle: saline
  survivor count: 0 of 4
[11]
  survivor count: 0 of 4

## N#CCN1C(=O)c2ccccc2C1=O
[12]
  survivor count: 0 of 6
[4]
  survivor count: 0 of 6
[8]
  survivor count: 2 of 6
[5]
  survivor count: 0 of 6
[6]
  survivor count: 0 of 6
[1]
  survivor count: 0 of 6

## O=C(C[n+]1cc2ccccc2c2ccccc21)c1ccccc1
[12]
  survivor count: 6 of 6
[9]
  survivor count: 0 of 6

## CC(C)C1(C)C(=O)N(C)C(=O)N1Br (stereo unspecified)
[9]
  survivor count: 1 of 6
[1]
  survivor count: 2 of 6

## CC1=CC(=O)CC(C)(C)C1(O)/C=C/C(C)=C/C(=O)O (stereo unspecified)
dose: 12.5 mg/kg/injection, schedule: Q01DX009 (ip), vehicle: Klucel (hydroxypropylcellulose) (HPC)
  survivor count: 6 of 6

## O=C(/C=C/C(=O)Nc1cccc(C2=NCCN2)c1)Nc1cccc(C2=NCCN2)c1
dose: 30.0 mg/kg/injection, schedule: Q01DX Z (ip), vehicle: carboxymethylcellulose (CMC)
  survivor count: 5 of 6

## Cc1ccc(N)cc1
[11]
  survivor count: 1 of 4

## COC(=O)C(CSC(c1ccc(N(C)C)cc1)c1ccc(N(C)C)cc1)NC(=O)OCc1ccccc1 (stereo unspecified)
dose: 150.0 mg/kg/injection, schedule: Q01DX001 (ip), vehicle: carboxymethylcellulose (CMC)
  survivor count: 6 of 6

## C[C@]12CCC(=O)C=C1CC[C@@H]1[C@@H]2C(=O)C[C@]2(C)C3=CC(=O)O[C@H]3C[C@@H]12
dose: 100.0 mg/kg/injection, schedule: Q01DX009 (ip), vehicle: Klucel (hydroxypropylcellulose) (HPC)
  survivor count: 1 of 6
[9]
  survivor count: 0 of 6
[10]
  survivor count: 0 of 6

## O=[N+]([O-])c1cccc(N(CCF)CCF)c1
dose: 40.0 mg/kg/injection, schedule: Q01DX001 (ip), vehicle: carboxymethylcellulose (CMC)
  survivor count: 1 of 4
dose: 50.0 mg/kg/injection, schedule: Q01DX001 (ip), vehicle: carboxymethylcellulose (CMC)
  survivor count: 0 of 4
dose: 80.0 mg/kg/injection, schedule: Q01DX001 (ip), vehicle: carboxymethylcellulose (CMC)
  survivor count: 0 of 4
dose: 100.0 mg/kg/injection, schedule: Q01DX001 (ip), vehicle: carboxymethylcellulose (CMC)
  survivor count: 0 of 4
dose: 200.0 mg/kg/injection, schedule: Q01DX001 (ip), vehicle: carboxymethylcellulose (CMC)
  survivor count: 0 of 4
dose: 400.0 mg/kg/injection, schedule: Q01DX001 (ip), vehicle: carboxymethylcellulose (CMC)
  survivor count: 0 of 4

## CN1CCCC1CCCl (stereo unspecified)
dose: 115.0 mg/kg/injection, schedule: Q04DX003 (ip), vehicle: saline
  survivor count: 2 of 6
dose: 170.0 mg/kg/injection, schedule: Q04DX003 (ip), vehicle: saline
  survivor count: 0 of 6

## CCc1cc(S(=O)(=O)O)c(CC)c(CC)c1CC
[2]
  survivor count: 1 of 6
[3]
  survivor count: 0 of 6
